# Data reported in the supplement of paper PMC4635364.
# Where a name gives a salt, the structure may show the parent alone. The list shows a part of the results. Single values are uncertain here, since repeats match poorly.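 Human fetal ventral-midbrain neural progenitor line ReNCell VM, differentiated without mitogens. Images stained for doublecortin (early neurons) or tyrosine hydroxylase (dopaminergic neurons) were scored by blinded raters against untreated wells (0 = no change). Repeats and both raters were averaged, and compounds averaging 2 or higher were picked as hits for retesting.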
# System: ReNCell VM
# Experiment: dopaminergic neuron differentiation score (TH+ cell fraction vs untreated, manual image score) (score (0 to 3)); higher = more TH+ dopaminergic neuron differentiation
# Conditions: library: Tocriscreen; 2 uM; 4 weeks; BDNF 10 ng/ml + GDNF 10 ng/ml
row,Compound,dopaminergic neuron differentiation score
1,CC(=O)N(C)c1cccc(-c2ccnc3c(C(=O)c4cccs4)cnn23)c1 [Indiplon],inactive: 0
2,Cc1nnc2ccc(-c3cccc(C(F)(F)F)c3)nn12,inactive: 0
3,O=C1NCN(c2ccccc2)C12CCN(CC1COc3ccccc3O1)CC2 (centres undefined) [Spiroxatrine],inactive: 0
4,Oc1ccc2c3c1O[C@H]1c4[nH]c5ccccc5c4C[C@@]4(O)[C@@H](C2)N(CC2CC2)CC[C@]314 [Naltrindole hydrochloride],active: 2
5,CN[C@@H]1C[C@@H](c2ccc(Cl)c(Cl)c2)c2ccccc21 [Indatraline hydrochloride],inactive: 0
6,N.N.[Cl][Pt][Cl] [Cisplatin],inactive: 0
7,CCN1C[C@]2(COC(=O)c3ccccc3N3C(=O)C[C@H](C)C3=O)CC[C@H](OC)[C@@]34[C@@H]5C[C@H]6[C@H](OC)[C@@H]5[C@](O)(C[C@@H]6OC)[C@](O)([C@@H](OC)[C@H]23)[C@@H]14 [Methyllycaconitine citrate],inactive: 0
8,CC(C)(C)NCC(O)COc1cccc2[nH]c(C#N)cc12 (centres undefined) [Cyanopindolol hemifumarate],inactive: 0
9,O=C1CN=C(c2cccc(Br)c2)c2oc3ccccc3c2N1,inactive: 1
10,c1ccc(CCCN2CCN(CCOC(c3ccccc3)c3ccccc3)CC2)cc1,inactive: 0
11,"C=CCN1CC[C@]2(C)c3cc(O)ccc3C[C@H]1C2C (single isomer, unassigned; (+))",inactive: 0
12,CCOC(=O)c1ncn2c1[C@@H]1CCCN1C(=O)c1cc(OC)ccc1-2,inactive: 0
13,CC(C)[C@@]1(NC(=O)[C@@H]2C[C@@H]3c4cccc5[nH]cc(c45)C[C@H]3N(C)C2)O[C@@]2(O)[C@@H]3CCCN3C(=O)[C@H](Cc3ccccc3)N2C1=O [Dihydroergocristine mesylate],inactive: 0
14,CCCN(CCC)C1Cc2cc(OC)c(OC)cc2C1,inactive: 0

# Reformatted: two of the compounds above.
row	Compound	dopaminergic neuron differentiation score
13	CC(C)[C@@]1(NC(=O)[C@@H]2C[C@@H]3c4cccc5[nH]cc(c45)C[C@H]3N(C)C2)O[C@@]2(O)[C@@H]3CCCN3C(=O)[C@H](Cc3ccccc3)N2C1=O [Dihydroergocristine mesylate]	inactive: 0
14	CCCN(CCC)C1Cc2cc(OC)c(OC)cc2C1	inactive: 0
